# Results are given in words; binding and its absence hold for the method and conditions named. Binding seen in cells or lysates may run through a third protein. A yes stands for co-enrichment or nearness to the bait. Other partners may have been found.
# T1: MX2-MUTT2A-TurboID (human) (UniProt P20592)
# T1 sequence: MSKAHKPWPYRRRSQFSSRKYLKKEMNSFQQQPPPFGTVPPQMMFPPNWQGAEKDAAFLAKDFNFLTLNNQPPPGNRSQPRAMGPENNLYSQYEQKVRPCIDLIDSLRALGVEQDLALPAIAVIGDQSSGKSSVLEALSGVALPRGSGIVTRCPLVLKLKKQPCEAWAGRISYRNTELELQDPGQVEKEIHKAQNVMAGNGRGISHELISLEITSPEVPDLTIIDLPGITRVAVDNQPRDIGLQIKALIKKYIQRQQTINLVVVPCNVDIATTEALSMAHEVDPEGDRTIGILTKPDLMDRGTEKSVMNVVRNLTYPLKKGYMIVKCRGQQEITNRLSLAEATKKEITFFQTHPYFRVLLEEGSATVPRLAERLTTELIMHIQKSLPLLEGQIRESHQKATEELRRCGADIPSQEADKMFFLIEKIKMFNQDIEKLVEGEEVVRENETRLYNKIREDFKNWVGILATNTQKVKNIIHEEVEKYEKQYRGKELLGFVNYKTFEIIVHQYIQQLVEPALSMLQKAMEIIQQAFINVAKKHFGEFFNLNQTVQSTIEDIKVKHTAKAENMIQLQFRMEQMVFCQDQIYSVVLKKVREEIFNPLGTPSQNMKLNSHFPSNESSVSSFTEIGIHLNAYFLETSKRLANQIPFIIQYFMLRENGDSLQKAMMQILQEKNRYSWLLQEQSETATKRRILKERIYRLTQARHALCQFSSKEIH
# Biological target: T1, MX2-MUTT2A-TurboID (human)
# Test: proximity labelling
row,Binder,binding
1,"nuclear transport receptor transportin-2 (TNPO2) (protein, UniProt O14787 1-897) MDWQPDEQGLQQVLQLLKDSQSPNTATQRIVQDKLKQLNQFPDFNNYLIFVLTRLKSEDEPTRSLSGLILKNNVKAHYQSFPPPVADFIKQECLNNIGDASSLIRATIGILITTIASKGELQMWPELLPQLCNLLNSEDYNTCEGAFGALQKICEDSSELLDSDALNRPLNIMIPKFLQFFKHCSPKIRSHAIACVNQFIMDRAQALMDNIDTFIEHLFALAVDDDPEVRKNVCRALVMLLEVRIDRLIPHMHSIIQYMLQRTQDHDENVALEACEFWLTLAEQPICKEVLASHLVQLIPILVNGMKYSEIDIILLKGDVEEDEAVPDSEQDIKPRFHKSRTVTLPHEAERPDGSEDAEDDDDDDALSDWNLRKCSAAALDVLANVFREELLPHLLPLLKGLLFHPEWVVKESGILVLGAIAEGCMQGMVPYLPELIPHLIQCLSDKKALVRSIACWTLSRYAHWVVSQPPDMHLKPLMTELLKRILDGNKRVQEAACSAFATLEEEACTELVPYLSYILDTLVFAFGKYQHKNLLILYDAIGTLADSVGHHLNQPEYIQKLMPPLIQKWNELKDEDKDLFPLLECLSSVATALQSGFLPYCEPVYQRCVTLVQKTLAQAMMYTQHPEQYEAPDKDFMIVALDLLSGLAEGLGGHVEQLVARSNIMTLLFQCMQDSMPEVRQSSFALLGDLTKACFIHVKPCIAEFMPILGTNLNPEFISVCNNATWAIGEICMQMGAEMQPYVQMVLNNLVEIINRPNTPKTLLENTGRLTSPSAIPAITIGRLGYVCPQEVAPMLQQFIRPWCTSLRNIRDNEEKDSAFRGICMMIGVNPGGVVQDFIFFCDAVASWVSPKDDLRDMFYKILHGFKDQVGEDNWQQFSEQFPPLLKERLAAFYGV",binds
2,"NUP133 (protein, UniProt Q8WUM0 1-1156) MFPAAPSPRTPGTGSRRGPLAGLGPGSTPRTASRKGLPLGSAVSSPVLFSPVGRRSSLSSRGTPTRMFPHHSITESVNYDVKTFGSSLPVKVMEALTLAEVDDQLTINIDEGGWACLVCKEKLIIWKIALSPITKLSVCKELQLPPSDFHWSADLVALSYSSPSGEAHSTQAVAVMVATREGSIRYWPSLAGEDTYTEAFVDSGGDKTYSFLTAVQGGSFILSSSGSQLIRLIPESSGKIHQHILPQGQGMLSGIGRKVSSLFGILSPSSDLTLSSVLWDRERSSFYSLTSSNISKWELDDSSEKHAYSWDINRALKENITDAIWGSESNYEAIKEGVNIRYLDLKQNCDGLVILAAAWHSADNPCLIYYSLITIEDNGCQMSDAVTVEVTQYNPPFQSEDLILCQLTVPNFSNQTAYLYNESAVYVCSTGTGKFSLPQEKIVFNAQGDSVLGAGACGGVPIIFSRNSGLVSITSRENVSILAEDLEGSLASSVAGPNSESMIFETTTKNETIAQEDKIKLLKAAFLQYCRKDLGHAQMVVDELFSSHSDLDSDSELDRAVTQISVDLMDDYPASDPRWAESVPEEAPGFSNTSLIILHQLEDKMKAHSFLMDFIHQVGLFGRLGSFPVRGTPMATRLLLCEHAEKLSAAIVLKNHHSRLSDLVNTAILIALNKREYEIPSNLTPADVFFREVSQVDTICECLLEHEEQVLRDAPMDSIEWAEVVINVNNILKDMLQAASHYRQNRNSLYRREESLEKEPEYVPWTATSGPGGIRTVIIRQHEIVLKVAYPQADSNLRNIVTEQLVALIDCFLDGYVSQLKSVDKSSNRERYDNLEMEYLQKRSDLLSPLLSLGQYLWAASLAEKYCDFDILVQMCEQTDNQSRLQRYMTQFADQNFSDFLFRWYLEKGKRGKLLSQPISQHGQLANFLQAHEHLSWLHEINSQELEKAHATLLGLANMETRYFAKKKTLLGLSKLAALASDFSEDMLQEKIEEMAEQERFLLHQETLPEQLLAEKQLNLSAMPVLTAPQLIGLYICEENRRANEYDFKKALDLLEYIDEEEDININDLKLEILCKALQRDNWSSSDGKDDPIEVSKDSIFVKILQKLLKDGIQLSEYLPEVKDLLQADQLGSLKSNPYFEFVLKANYEYYVQGQI",binds
3,"NUP85 (protein, UniProt Q9BW27 1-656) MEELDGEPTVTLIPGVNSKKNQMYFDWGPGEMLVCETSFNKKEKSEMVPSCPFIYIIRKDVDVYSQILRKLFNESHGIFLGLQRIDEELTGKSRKSQLVRVSKNYRSVIRACMEEMHQVAIAAKDPANGRQFSSQVSILSAMELIWNLCEILFIEVAPAGPLLLHLLDWVRLHVCEVDSLSADVLGSENPSKHDSFWNLVTILVLQGRLDEARQMLSKEADASPASAGICRIMGDLMRTMPILSPGNTQTLTELELKWQHWHEECERYLQDSTFATSPHLESLLKIMLGDEAALLEQKELLSNWYHFLVTRLLYSNPTVKPIDLHYYAQSSLDLFLGGESSPEPLDNILLAAFEFDIHQVIKECSIALSNWWFVAHLTDLLDHCKLLQSHNLYFGSNMREFLLLEYASGLFAHPSLWQLGVDYFDYCPELGRVSLELHIERIPLNTEQKALKVLRICEQRQMTEQVRSICKILAMKAVRNNRLGSALSWSIRAKDAAFATLVSDRFLRDYCERGCFSDLDLIDNLGPAMMLSDRLTFLGKYREFHRMYGEKRFADAASLLLSLMTSRIAPRSFWMTLLTDALPLLEQKQVIFSAEQTYELMRCLEDLTSRRPVHGESDTEQLQDDDIETTKVEMLRLSLARNLARAIIREGSLEGS",binds
